# From article PMC12682859, “Interconnected roles of mitochondrial carrier proteins ANT, PiT, and UCPs in proton transport” (Frontiers in Molecular Biosciences, 2025)
# B1: uncoupling protein 4 (UCP4), recombinant His6-tagged (natural protein, human, UniProt O95847 1-323, looked up)
# chain: MSVPEEEERLLPLTQRWPRASKFLLSGCAATVAELATFPLDLTKTRLQMQGEAALARLGDGARESAPYRGMVRTALGIIEEEGFLKLWQGVTPAIYRHVVYSGGRMVTYEHLREVVFGKSEDEHYPLWKSVIGGMMAGVIGQFLANPTDLVKVQMQMEGKRKLEGKPLRFRGVHHAFAKILAEGGIRGLWAGWVPNIQRAALVNMGDLTTYDTVKHYLVLNTPLEDNIMTHGLSSLCSGLVASILGTPADVIKSRIMNQPRDKQGRGLLYKSSTDCLIQAVQGEGFMSLYKGFLPSWLRMTPWSMVFWLTYEKIREMSGVSPF
# notes: human UCP4, UniProt O95847; Cloned in pET26b(+); purified as a monomer in OG, tetramer after reconstitution in liposomes; source: E. coli BL21 (DE3) or BL21 CodonPlus (DE3)-RIPL, extracted from bacterial membranes, purified (Ni-NTA IMAC, 1% OG); not shown: pelB leader, N-terminal, cleaved; His6, N-terminal, kept
# B2: adenine nucleotide translocase 1 (ANT1), recombinant His6-tagged (natural protein, bovine)
# chain: SDQALSFLKDFLAGGVAAAISKTAVAPIERVKLLLQVQHASKQISAEKQYKGIIDCVVRIPKEQGFLSFWRGNLANVIRYFPTQALNFAFKDKYKQIFLGGVDRHKQFWRYFAGNLASGGAAGATSLCFVYPLDFARTRLAADVGKGAAQREFTGLGNCITKIFKSDGLRGLYQGFNVSVQGIIIYRAAYFGVYDTAKGMLPDPKNVHIIVSWMIAQTVTAVAGLVSYPFDTVRRRMMMQSGRKGADIMYTGTVDCWRKIAKDEGPKAFFKGAWSNVLRGMGGAFVLVLYDEIKKFV
# notes: bovine ANT1, UniProt P02722; Cloned in pET26b(+); also called ADP/ATP carrier; AAC; source: E. coli BL21 (DE3) or BL21 CodonPlus (DE3)-RIPL, extracted from bacterial membranes, purified (Ni-NTA IMAC, 1% OG); not shown: pelB leader, N-terminal, cleaved; His6, N-terminal, kept
# B3: uncoupling protein 2 (UCP2), recombinant His6-tagged (natural protein, human, UniProt P55851 1-309, looked up)
# chain: MVGFKATDVPPTATVKFLGAGTAACIADLITFPLDTAKVRLQIQGESQGPVRATASAQYRGVMGTILTMVRTEGPRSLYNGLVAGLQRQMSFASVRIGLYDSVKQFYTKGSEHASIGSRLLAGSTTGALAVAVAQPTDVVKVRFQAQARAGGGRRYQSTVNAYKTIAREEGFRGLWKGTSPNVARNAIVNCAELVTYDLIKDALLKANLMTDDLPCHFTSAFGAGFCTTVIASPVDVVKTRYMNSALGQYSSAGHCALTMLQKEGPRAFYKGFMPSFLRLGSWNVVMFVTYEQLKRALMAACTSREAPF
# notes: human UCP2, UniProt P55851; Cloned in pET26b(+); purified as a monomer in OG, tetramer after reconstitution in liposomes; source: E. coli BL21 (DE3) or BL21 CodonPlus (DE3)-RIPL, extracted from bacterial membranes, purified (Ni-NTA IMAC, 1% OG); not shown: pelB leader, N-terminal, cleaved; His6, N-terminal, kept
# Molecular target: phosphate translocase PiT-B, recombinant His6-tagged (human)
# Assay: semi-native SDS-PAGE; two purified monomeric proteins co-reconstituted 1:1 in liposomes (UCP4:ANT1 also 3:1 and 1:3), regardless of lipid composition (EYPC with or without 2.5% CL); Coomassie staining; both purified
row,Binder,binding
1,B1,binds
2,B2,binds
3,B3,binds

# These are yes or no findings as the source states them, for the method shown. Binding calls can cover weak binding; strength is not graded here. Sequences can lack the tags named with a protein.
